Source: PMC4557309
Results are given in words; binding and its absence hold for the method and conditions named. A result given as binding can be weak or reduced; the word gives no strength.

By UniProt entry, the sequences of proteins in these tests, tags left out. Where a name states a change or a piece, a line headed by the entry shows the natural chain unless it says otherwise.
UniProt Q9XUS9: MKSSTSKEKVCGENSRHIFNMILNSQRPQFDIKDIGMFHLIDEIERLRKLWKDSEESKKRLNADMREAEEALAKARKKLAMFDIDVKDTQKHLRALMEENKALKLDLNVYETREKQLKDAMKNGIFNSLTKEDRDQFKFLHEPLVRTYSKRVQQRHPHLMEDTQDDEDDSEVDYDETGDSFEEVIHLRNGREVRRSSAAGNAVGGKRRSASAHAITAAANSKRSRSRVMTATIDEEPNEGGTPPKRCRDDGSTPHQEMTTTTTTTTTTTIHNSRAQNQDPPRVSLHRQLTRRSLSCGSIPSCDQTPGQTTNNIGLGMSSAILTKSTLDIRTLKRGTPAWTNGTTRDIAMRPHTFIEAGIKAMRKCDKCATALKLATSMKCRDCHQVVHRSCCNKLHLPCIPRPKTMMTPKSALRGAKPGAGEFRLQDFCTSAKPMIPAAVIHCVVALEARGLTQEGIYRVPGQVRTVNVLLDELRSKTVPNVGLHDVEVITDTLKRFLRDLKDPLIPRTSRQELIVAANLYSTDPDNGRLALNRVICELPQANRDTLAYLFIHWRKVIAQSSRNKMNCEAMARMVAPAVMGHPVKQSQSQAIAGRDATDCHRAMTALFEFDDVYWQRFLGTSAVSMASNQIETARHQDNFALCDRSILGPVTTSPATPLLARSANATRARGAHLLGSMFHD

Molecular target: MBP-CYK-4 FL (C. elegans) (UniProt Q9XUS9)
Experiment: pull-down; purified SPD-1 1–228 fragments incubated with amylose beads carrying MBP-CYK-4 fusion proteins; western blot with an anti-SPD-1 antibody; both purified

SPD-1 1-228 fragment, wild type (from UniProt G5ED58) (domain or fragment)
binding: binds
